{
  "source": "patent US11759445B2",
  "about": "“Use of Rivastigmine in preparation of anti-radiation medicament” (priority 2020, dated 2023)",
  "key": {"C57BL/6 mice": {"tested_on": "C57BL/6 mice", "experiment": "Survival of mice at a lethal dose (10 Gy whole body irradiation) after intraperitoneal medicament", "format": "in vivo, mouse", "excerpt": "1.2.2 Experiment for Verifying the Survival Rate of Mice at a Lethal Dose\nMice were subjected to 10 Gy whole body irradiation with an X-ray biological irradiator in Department of Medicine having a dose rate of 1.5 Gy/min; and before irradiation, mice were intraperitoneally injected the medicament screened out via an in vitro experiment, and then continuously raised in a temporary storage room of the animal center after irradiation.\n4 to 6 week-age C57BL/6 mice were selected as experimental subjects, and divided into control groups and experimental groups, and subjected to 10 Gy whole body irradiation with a dose rate of 1.5 Gy/min; mice in the experimental subjects were respectively intraperitoneally injected the medicaments screened half an hour before irradiation, and the survival time was recorded after irradiation. Among the medicaments, water-soluble Don-H, Pra-C and DL-Pan are dissolved by normal saline, and others were dissolved by 5 g/100 mL DMSO+edible oil. The medicament was prepared into a stock solution having a corresponding concentration according to the volume that 20 g mice were intraperitoneally injected 100 μL medicament."}, "crypt stem cells Lgr5+": {"tested_on": "crypt stem cells Lgr5+", "experiment": "In vitro medicament screening experiment on crypt stem cells Lgr5+ of mice (GFP fluorescence after 10 Gy irradiation)", "format": "cell-based", "conditions": "Mus musculus, light or radiation study, 240 h, 10 μM medicament, GFP fluorescence 10 d after irradiation, read-out: increment of the Lgr5+ stem cells compared with IR groups", "excerpt": "1.2.1 In Vitro Medicament Screening Experiment on Crypt Stem Cells Lgr5^+ of Mice\n1) Lgr5-GFP mice were sacrificed by cervical dislocation, and enterocoelia was opened and the whole small intestine was taken out, and then the small intestine was put to a pre-cooled HBSS buffer solution to remove mesentery and adipose tissues as much as possible, and dissected longitudinally to wash out contents of the small intestine.\n2) Villi and contents inside the intestinal cavity were scraped by a glass slide, and then the remaining intestinal cavity was washed for once to twice.\n3) The whole small intestine was quickly cut into 5 mm intestinal segments. […]\n15) The 96-well plate was put on a multi-mode microplate reader to read fluorescence intensity under the conditions of excitation wavelength at 485 nm and emission wavelength at 528 nm, and to record the values on the same day.\n16) Crypt cells were irradiated with 10 Gy radiation, and the fluorescence intensity for consecutive 10 d after irradiation was recorded; afterwards, the background fluorescence intensity of a blank control was removed, and a fluorescence intensity curve was drawn; and the test results were shown in FIGS. 1-4.\nCrypt stem cells Lgr5^+ separated from Lgr5-GFP mice in vivo carried GFP fluorescence, and the change of the mean fluorescence intensity (MFI) represented the proliferation of crypt stem cells Lgr5*. […]"}},
  "note": "Counter-ions that a name gives are not always drawn.",
  "data": [
    {"smiles": "COc1cc2c(cc1OC)C(=O)C(CC1CCN(Cc3ccccc3)CC1)C2", "note": "(stereo not drawn) [Donepezil HCl]", "values": [
      {"measurement": "survival time of the mice", "setting": "C57BL/6 mice; 3 mg/kg i.p. half an hour before 10 Gy whole body irradiation", "value": "did not improve the survival time"},
      {"measurement": "survival time of the mice", "setting": "C57BL/6 mice; 6 mg/kg i.p. half an hour before 10 Gy whole body irradiation", "value": "did not improve the survival time"},
      {"measurement": "fold induction at 10 µM", "setting": "crypt stem cells Lgr5+", "value": 6.2}
    ]}
  ]
}
